Experiment [1] addresses T1, Apolipoprotein E (mouse (endogenous in BMDM)) (UniProt P08226).
T1 sequence: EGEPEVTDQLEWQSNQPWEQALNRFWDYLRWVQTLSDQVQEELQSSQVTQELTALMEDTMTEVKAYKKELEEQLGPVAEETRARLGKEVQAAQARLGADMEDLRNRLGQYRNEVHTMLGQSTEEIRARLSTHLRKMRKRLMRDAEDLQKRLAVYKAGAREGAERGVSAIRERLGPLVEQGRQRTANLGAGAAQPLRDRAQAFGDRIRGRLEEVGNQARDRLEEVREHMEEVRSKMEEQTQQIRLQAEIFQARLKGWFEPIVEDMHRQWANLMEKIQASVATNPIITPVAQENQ
Nature of the experiment: co-IP; BMDM membrane extracts from WT and P2X4 KO mice immunoprecipitated with anti-P2X4 or anti-ApoE antibodies crosslinked to magnetic beads, 4 °C o/n; immunoblotted with anti-ApoE and anti-P2X4. In general terms: In western blotting, separated proteins are transferred to a membrane and probed.

Experiment [2] addresses T2, P2X4 receptor (mouse (endogenous in BMDM)) (UniProt Q9JJX6).
T2 sequence: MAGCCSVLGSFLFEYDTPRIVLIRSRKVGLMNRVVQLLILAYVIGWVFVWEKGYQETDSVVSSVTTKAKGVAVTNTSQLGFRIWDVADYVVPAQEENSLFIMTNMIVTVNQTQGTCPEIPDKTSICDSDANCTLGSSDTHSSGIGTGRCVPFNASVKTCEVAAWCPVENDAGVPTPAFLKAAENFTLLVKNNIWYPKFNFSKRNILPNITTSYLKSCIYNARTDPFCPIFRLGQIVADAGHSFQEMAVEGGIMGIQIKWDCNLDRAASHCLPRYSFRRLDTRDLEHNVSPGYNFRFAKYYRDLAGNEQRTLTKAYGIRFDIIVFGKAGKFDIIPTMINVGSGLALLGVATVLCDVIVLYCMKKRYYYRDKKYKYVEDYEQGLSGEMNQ
Described as above.

Results are given in words; binding and its absence hold for the method and conditions named. Binding seen in cells or lysates may run through a third protein. Some entries that bind do so weakly or less than the wild type.

B1: P2X4 receptor (receptor, UniProt Q9JJX6 1-388)
chain: MAGCCSVLGSFLFEYDTPRIVLIRSRKVGLMNRVVQLLILAYVIGWVFVWEKGYQETDSVVSSVTTKAKGVAVTNTSQLGFRIWDVADYVVPAQEENSLFIMTNMIVTVNQTQGTCPEIPDKTSICDSDANCTLGSSDTHSSGIGTGRCVPFNASVKTCEVAAWCPVENDAGVPTPAFLKAAENFTLLVKNNIWYPKFNFSKRNILPNITTSYLKSCIYNARTDPFCPIFRLGQIVADAGHSFQEMAVEGGIMGIQIKWDCNLDRAASHCLPRYSFRRLDTRDLEHNVSPGYNFRFAKYYRDLAGNEQRTLTKAYGIRFDIIVFGKAGKFDIIPTMINVGSGLALLGVATVLCDVIVLYCMKKRYYYRDKKYKYVEDYEQGLSGEMNQ
As for B1, the binding result in experiment [1] is “binds”.

B2: Apolipoprotein E (protein, UniProt P08226 19-311)
chain: EGEPEVTDQLEWQSNQPWEQALNRFWDYLRWVQTLSDQVQEELQSSQVTQELTALMEDTMTEVKAYKKELEEQLGPVAEETRARLGKEVQAAQARLGADMEDLRNRLGQYRNEVHTMLGQSTEEIRARLSTHLRKMRKRLMRDAEDLQKRLAVYKAGAREGAERGVSAIRERLGPLVEQGRQRTANLGAGAAQPLRDRAQAFGDRIRGRLEEVGNQARDRLEEVREHMEEVRSKMEEQTQQIRLQAEIFQARLKGWFEPIVEDMHRQWANLMEKIQASVATNPIITPVAQENQ
As for B2, in experiment [2], the binding entry is “binds”.

The record behind these values is publication PMC10163120.
